Measured values published in patent US20060117402A1.

Molecular target: nuclear lamin bait
Assay: yeast two-hybrid, LEU2 reporter growth on SC-Leu

binding: no binding
B1: Group 2 positive clone (clone 20), two-hybrid library clone encoding the arm repeat protein ARIA (At5g19330) (protein, not shown: large carriers)
chain: ERREGRSFPERKGQKRKLEEGAAAVEDREISAVSTDGGQALLSEVAAQVSVLNSAFSWQESDRAAAKRATQVLAELAKNEDLVNVIVDGGAVPALMTHLQAPPYNDGDLAEKPYEHEVEKGSAFALGLLAIKPEYQKLIVDKGALPHLVNLLKRNKDGSSSRAVNSVIRRAADAITNLAHENSSIKTRVRVEGGIPPLVELLEFSDSKVQRAAAGALRTLAFKNDDNKNQIVECNALPTLILMLGSEDAAIHYEAVGVIGNLVHSSPHIKKEVLTAGALQPVIGLLSSCCPESQREAALLLGQFASTDSDCKVHIVQRGAVRPLIEMLQSPDVQLKEMSAFALGRLAQDAHNQAGIAHSGGLGPLLKLLDSRNGSLQHNAAFALYGLADNEDNVSDFIRVGGIQKLQDGEFIVQATKDCVSKTLKRLEEKIHGRVLRHLLYLMRISEKSIQRRVALALAHLCSPEDQRTIFIDDNGLELLLGLLGSLNTKQQLDGAAALYKLANKSMALSPVDAAPPSPTQRVYLGEQYVNNATLSDVTFLVEGRTFYAHRICLLASSDAFRAMFDGGYREKDARDIEIPNIKWEVFELMMRFIYTGSVDITNEISKDLLRAADQYLLEGLKRLCEYTIAQDITLESIGDMYELSEAFHAMSLRQACIMFILEHFDKLSSMPWQNELVQRTIPEIREYFCRALTKSTTNLQSLRL

Results are given in words; binding and its absence hold for the method and conditions named.
